Experimental findings from PubChem BioAssay AID2685 (National Center for Advancing Translational Sciences (NCATS), 2010) are described below.

The term AC50 denotes the concentration giving half of the maximal activity seen.

The list shows a part of the results. These are further read-outs of the screen, such as a control signal, another cell line or another target. No call is given for them. The list favours compounds with an active or inconclusive main result. Words in brackets tell the shape of the fitted curve; partial curves, single points and poor fits give uncertain potencies.

This experiment can be described thus: qHTS Assay for Lipid Storage Modulators in Drosophila S3 Cells.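 For cell number change: cells counted by Cell Tracker Red CMTPX staining in the red channel.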 As to conditions: BODIPY lipid droplet fluorescence, 18-24 h; for cell number change: measured here: cell count max response, cells fed with added oleic acid. Summed up:
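Drosophila S3 cells loaded with oleic acid (400 uM, as added) and compounds at several concentrations; lipid droplets imaged by 488-nm laser-scanning cytometry, 500–530 nm intensity and object ratio to cell channel. Percent activity normalized to 20 uM Triacsin C.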
On the technique in general: Quantitative high-throughput screening tests each substance at several concentrations.

[1] abbreviates: measured here: lipid fluorescence (Fed channel) AC50, cells fed with added oleic acid.
The mark [2] stands for this setting: measured here: cell number channel AC50, cells fed with added oleic acid.

In the case of `Cn1c(/C=C/c2cccc([N+](=O)[O-])c2)c([N+](=O)[O-])c(=O)n(C)c1=O`, the cell number change worked out at 6.08%. Also, the AC50 under setting [1] is 29.1 µM [falling, single point].

In the case of `Cc1ccc(C(C(=O)NCC2CCCO2)N(C(=O)c2snc(C(N)=O)c2N)c2ccc(C(C)C)cc2)o1` (stereo unspecified), the cell number change was -13.9%. The AC50 under setting [1] is 29.1 µM [rising, single point].

On to `O=C(Nc1ccccc1)N1N=C(c2ccc(F)cc2)CC1c1ccc(F)cc1` (stereo unspecified), for which the cell number change was 66.8%. Further, under setting [2], the AC50 was 29.1 µM [rising, single point]. The AC50 under setting [1] was 29.1 µM [rising, partial curve, poor fit].

Consider `COc1ccc(CCN(C(=O)C(F)(F)F)C(C(=O)NC2CCCCC2)c2ccc(C)s2)cc1OC` (stereo unspecified), for which the cell number change was -29.6%.

For the molecule `COc1ccc(Cl)cc1S(=O)(=O)n1nnc2ccccc21`, the cell number change was -3.25%.

As for `CC1Cc2ccccc2N1S(=O)(=O)c1cccc(C(=O)N2CC(=O)Nc3ccccc32)c1` (stereo unspecified), the cell number change was determined as 0.468%. Besides, the AC50 under setting [1] is 4.11 µM [rising, full curve].

As to `Cc1cccc2sc(NC(=O)CN3C(=O)NC4(CCCC4)C3=O)nc12`, the cell number change stood at 6.93%. In addition, the AC50 under setting [1] is 8.2 µM [rising, partial curve].

For `Cc1cc(C)c(S(=O)(=O)N(C)CC(=O)NCC2CCCO2)c(C)c1` (stereo unspecified), the cell number change is 14.9%. The half-maximal activity concentration (AC50) under setting [1] is 9.2 µM [rising, partial curve].

Regarding `O=C(NCCCN1CCCC1=O)c1cccc(S(=O)(=O)Nc2ccccc2Cl)c1`, the cell number change turned out to be 16.8%. Besides, the AC50 under setting [1] was 4.11 µM [falling, partial curve, poor fit].

As for `O=C(O)CCCNS(=O)(=O)c1ccc(NCc2ccccc2)c(C(=O)O)c1`, the cell number change is -81.6%. Moreover, the AC50 under setting [2] was 29.1 µM [falling, partial curve, poor fit]. Also, under setting [1], the AC50 was 29.1 µM [falling, single point].

On to `CCS(=O)(=O)Nc1cccc(C2=NN(S(=O)(=O)c3ccc(C)cc3)C(c3cccs3)C2)c1` (stereo unspecified), for which the cell number change amounted to 32.1%. Further, under setting [2], the AC50 is 1.3 µM [rising, partial curve].

For `Cc1cccc(NC(=O)C(C)Oc2ccccc2C)n1` (stereo unspecified), the cell number change is 121%. Moreover, the AC50 under setting [2] is 29.1 µM [rising, single point]. For the same molecule, under setting [1], the AC50 is 29.1 µM [rising, partial curve].

Regarding `COc1ccc(-c2cc(C(F)(F)F)nc(-n3cncn3)n2)cc1`, under setting [1], the concentration at half-maximal activity (AC50) is 6.51 µM [rising, single point].

For the molecule `C/C(=N\Nc1nncc2ccccc12)c1ccc(Cl)c([N+](=O)[O-])c1`, the cell number change is -1.68%.

In the case of `COc1ccccc1NC(=O)Nc1ccccc1C#N`, the cell number change is 9.12%. Besides, under setting [1], the AC50 was 29.1 µM [rising, single point].

As to `COc1ccccc1N=Nc1c(O)[nH]c2ccc(Br)cc12`, the cell number change was found to be 137%. In addition, the AC50 under setting [2] was 4.61 µM [rising, full curve].

For the molecule `CC(C)N(CCNC(=O)COc1ccc2oc3c(c2c1)CCCC3)C(C)C`, the cell number change was found to be 37%. Besides, under setting [2], the AC50 is 5.17 µM [rising, full curve, poor fit]. In addition, the AC50 under setting [1] was 23.1 µM [rising, partial curve, poor fit].

In the case of `O=C(Nc1ccc(O)cc1)c1ccc2c(c1)C(=O)N(N1C(=O)c3ccccc3C1=O)C2=O`, the cell number change was -10.3%. Further, the AC50 under setting [1] is 0.164 µM [falling, full curve].

Consider `CC(C)(C)c1ccc(C(=O)NNc2cc(N3CCCCC3)nc(N3CCCCC3)n2)cc1`, for which the cell number change was -46.2%. Moreover, under setting [2], the AC50 was 2.06 µM [falling, full curve]. Further, under setting [1], the AC50 is 2.31 µM [falling, full curve].

`CNC(=O)C(Sc1nc(C)nc2c1oc1ccccc12)C(C)=O` (stereo unspecified): the cell number change amounted to 61.6%. Also, the AC50 under setting [2] is 0.461 µM [rising, full curve, poor fit]. For the same molecule, the AC50 under setting [1] was 3.26 µM [rising, partial curve].

In the case of `CN(CC(=O)Nc1ccc(Cl)c(C(F)(F)F)c1)C(=O)c1cc(=O)[nH]c2ccccc12`, the cell number change came to 114%. Moreover, the AC50 under setting [2] is 13 µM [rising, partial curve].

For the molecule `CC1=C(C(N)=O)C(c2ccc(C)o2)C(C(N)=O)=C(C)N1`, the AC50 under setting [1] was 0.58 µM [falling, single point].

Regarding `CCCc1cc(=O)[nH]c(SCC(=O)c2ccc(S(=O)(=O)N3CCCC3)cc2)n1`, the cell number change is -1.61%. Also, the AC50 under setting [1] is 29.1 µM [rising, single point].

In the case of `O=S(=O)(NCC1(N2CCOCC2)CCCCC1)c1ccc(F)c(F)c1F`, the cell number change worked out at 13.4%. The AC50 under setting [1] is 32.6 µM [falling, partial curve, poor fit].

On to `Cc1ccc(N(CC(=O)Nc2ccc(S(=O)(=O)N3CCOCC3)cc2)S(C)(=O)=O)cc1C`, for which the cell number change is -18.7%. Under setting [1], the AC50 was 1.46 µM [falling, full curve, poor fit].

As for `Cn1c(=O)n(CC(=O)Nc2ccccc2)c2ccccc21`, the cell number change is -1.89%.

As for `Cc1ccsc1/C=C/c1ccc2cccc(O)c2n1`, the cell number change amounted to 55.6%. Moreover, under setting [2], the AC50 is 29.1 µM [rising, single point]. For the same molecule, the AC50 under setting [1] is 29.1 µM [rising, single point].

`CSCCC(NC(=O)c1ccccc1)C(=O)NCc1ccc(S(N)(=O)=O)cc1` (stereo unspecified): the cell number change was -27.8%.

For the molecule `CCCN(CC(=O)Nc1ccccc1C)C(=O)c1ccc(C)c(S(=O)(=O)N2CCCCC2)c1`, the cell number change turned out to be 49.5%. In addition, the AC50 under setting [2] is 0.291 µM [rising, partial curve].

For the molecule `O=C(NNC(=O)c1ccc(Cl)cc1Cl)c1csc(-c2cccnc2)n1`, the cell number change worked out at 35.4%. Besides, the AC50 under setting [2] was 29.1 µM [rising, single point]. Further, the AC50 under setting [1] was 18.4 µM [rising, single point].

`NS(=O)(=O)c1ccc(CCNC(=O)COC(=O)/C=C/c2ccc(OC(F)F)cc2)cc1`: the cell number change was -25%. Besides, under setting [2], the AC50 is 4.11 µM [rising, single point].

In the case of `Cc1cc(=O)[nH]c(SCn2nnc3ccccc3c2=O)n1`, the cell number change was found to be 11.4%. Also, under setting [1], the AC50 is 2.91 µM [falling, single point].

Turning to `COc1cc(NC(=O)CSc2nc3c(C)ccc(C)c3cc2C)c(C(=O)O)cc1OC`, the cell number change was found to be 36.8%. Also, the AC50 under setting [2] is 8.2 µM [rising, partial curve]. Besides, under setting [1], the AC50 is 20.6 µM [rising, single point].

With `COc1cccc(-n2c(C)nn(CCOc3ccccc3)c2=O)c1`, the cell number change is 17.3%.

In the case of `CN1CCN(CCC(=O)Nc2ccccc2)CC1`, the cell number change is -8.92%.

Consider `NS(=O)(=O)c1ccc(CNC(=O)c2ccc3c(=O)n4c(nc3c2)CCC4)cc1`, for which the cell number change is -31.1%. Further, under setting [2], the half-maximal activity concentration (AC50) was 4.11 µM [falling, full curve]. For the same molecule, the half-maximal activity concentration (AC50) under setting [1] was 3.66 µM [falling, full curve].

As for `COc1cccc(CC(=O)Nc2nc(-c3ccc(OC)c(OC)c3)cs2)c1`, the cell number change was 30.3%. Moreover, the AC50 under setting [2] was 0.461 µM [rising, full curve].

`O=C(NCCNC(=O)c1cnccn1)c1ccc(Cl)c(Cl)c1`: the cell number change was 7.89%.

Consider `CC(C#N)(NC(=O)CN1CCN(S(=O)(=O)c2ccccc2C#N)CC1)C1CC1` (stereo unspecified), for which the cell number change came out at 8.39%. In addition, under setting [1], the AC50 is 11.6 µM [rising, partial curve].

For the molecule `Cc1c(C(=O)Nc2ccc3c(c2)OCCO3)oc2ccc(Br)cc12`, the cell number change was -1.48%. Besides, the AC50 under setting [1] was 29.1 µM [falling, single point].

`COc1ccc(C(CCNCc2ccc(F)cc2)c2ccc(F)cc2)cc1` (stereo unspecified): the half-maximal activity concentration (AC50) under setting [2] was 6.51 µM [falling, single point] and the AC50 under setting [1] was 29.1 µM [falling, single point].

Regarding `O=C(CSc1nnc(SCc2ccc(Cl)cc2)s1)c1ccc2c(c1)OCO2`, the cell number change was -4.9%. Further, the AC50 under setting [1] was 0.58 µM [rising, full curve, poor fit].

Consider `O=C(NCc1ccccc1)c1nc(S(=O)(=O)Cc2ccccc2)ncc1Cl`, for which the cell number change is 13%. In addition, the AC50 under setting [2] was 2.06 µM [falling, partial curve]. Moreover, under setting [1], the AC50 is 6.51 µM [falling, partial curve, poor fit].

For the molecule `O=c1[nH]n(Cc2ccccc2)c2ccccc12`, the cell number change is 30.7%. Also, the AC50 under setting [2] is 1.3 µM [rising, full curve, poor fit].

Consider `CCOc1ccc(-n2nc3c(=O)n(CCN4CCCCC4)nc(C)c3c2C)cc1`, for which the cell number change is 11.2%. The AC50 under setting [1] was 4.61 µM [rising, single point].

Consider `COc1ccc(C2C3=C(CCCC3=O)Nc3c(-c4ccccc4)c(C)nn32)cc1` (stereo unspecified), for which the cell number change was -27.7%. Besides, under setting [1], the AC50 was 8.2 µM [falling, partial curve, poor fit].

`O=C(c1cccc(S(=O)(=O)N2CCN(c3ccc(F)cc3)CC2)c1)N1CCCC(C(F)(F)F)C1` (stereo unspecified): the AC50 under setting [1] is 25.9 µM [falling, single point].

For the molecule `CC(=O)Oc1ccc(N2C(=O)CC(N3CCOCC3)C2=O)cc1` (stereo unspecified), the cell number change amounted to 6.21%.

With `CCOC(=O)CP(=O)(c1ccccc1)c1ccccc1`, the cell number change was -28.3%. The AC50 under setting [2] is 0.00517 µM [falling, full curve, poor fit]. Further, under setting [1], the AC50 was 1.64 µM [falling, full curve].

On to `COCCNC(=O)CN(CC1CCCO1)C(=O)CCC(=O)Nc1ccccn1` (stereo unspecified), for which the cell number change was -38.2%. Further, under setting [2], the half-maximal activity concentration (AC50) was 29.1 µM [falling, single point]. Also, the AC50 under setting [1] is 29.1 µM [falling, single point].

For the molecule `CCN(CC(=O)Nc1cc(Cl)ccc1C)C(=O)C1CC(=O)N(Cc2ccccc2)C1` (stereo unspecified), the cell number change was 59%.

Take `O=C(Cn1c(=O)c2cccn2c2ccc(F)cc21)NCCCN1CCN(c2ccccc2F)CC1`: the cell number change came to 32.7%. For the same molecule, the AC50 under setting [2] is 23.1 µM [rising, single point]. Under setting [1], the AC50 is 6.51 µM [rising, single point].

Turning to `CCNC(=O)COc1ccc(/C=C2\COc3ccccc3C2=O)cc1OC`, the AC50 under setting [1] is 6.51 µM [falling, single point].

Turning to `Cc1c(C#N)c2ncn(Cc3ccccc3)c(=O)c2n1-c1ccccc1`, the cell number change is 0.0698%. The AC50 under setting [1] was 0.651 µM [rising, full curve, poor fit].

As for `CCN(C(=O)N(CC)c1ccccc1)c1ccccc1`, the cell number change is -26.9%. The AC50 under setting [2] is 1.03 µM [rising, single point]. Besides, the AC50 under setting [1] is 29.1 µM [falling, single point].

For the molecule `CSC(=O)CC(=O)NC(=O)c1ccccc1`, the AC50 under setting [1] is 4.11 µM [falling, partial curve].

Take `CCOc1ccc(NC(=O)c2cccc(NC3=NC4CS(=O)(=O)CC4S3)c2)cc1` (stereo unspecified): the cell number change was -5.48%.

Consider `O=C(Nc1cccc2ncccc12)C(c1ccccc1)c1ccccc1`, for which the cell number change was -0.308%. The AC50 under setting [2] is 0.206 µM [falling, full curve]. For the same molecule, under setting [1], the AC50 was 0.092 µM [falling, full curve, poor fit].
